{"source": "PubChem BioAssay AID1347075", "about": "(National Center for Advancing Translational Sciences (NCATS), 2019)", "note": "Where “and” joins values, the source holds several entries; their conditions need not be identical. Equal entries are not always repeated. Among all 400,000 compounds or so, about 5,500 (1.4%) were called active. Inconclusive results, whose numbers are uncertain, are shown with a selection of clear calls. Calls come from the whole dose curve; as a rule, active = well fitted cell-killing curve with a large enough effect; inconclusive = small, poorly fitted or top-dose-only effect, or effect the other way; inactive = flat fitted curve, though single readings scatter. Where the call is inconclusive, the potency comes from a doubtful curve fit.", "data": [{"test": "qHTS assay for MDR1-selective chemotherapeutics: Primary screen using the parental adenocarcinoma cell KB-3-1; note: nearly all actives have a fitted effect of over 60% in size; note: potency is the fitted concentration of half-maximal effect; for activity change, negative = cytotoxic: % is set by controls: 0 for no effect and ±100 for the full control effect", "conditions": "KB-3-1 viability, CellTiter-Glo ATP luminescence, 72 h; activity change, negative = cytotoxic: at 46.1 µM (top of the series)", "procedure,_shortened": "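KB-3-1 parental drug-naive adenocarcinoma cells in DMEM/10% FBS, incubated 72 h at 37 C with pin-transferred compounds across a concentration series. Viability by CellTiter-Glo luminescence; concentration-response curves fitted after normalization.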", "values": [{"compound": "COCc1ccc(C(=O)N2CCCC(Nc3ccc(F)c(F)c3)C2)s1", "note": "(centres undefined)", "Potency": "inactive"}, {"compound": "Cc1ccc([N+](=O)[O-])cc1NC(=O)CCCOc1ccccc1", "Potency": "inactive"}, {"compound": "Cc1ccc(N2CCN(C(=O)NC3CCCCC3)CC2C)cc1", "note": "(centres undefined)", "Potency": "inactive"}, {"compound": "CN(C)c1ccc(P(=O)(OC2CCCCC2)C(O)c2ccncc2)cc1", "note": "(centres undefined)", "Potency": "inactive"}, {"compound": "CCCn1c(Nc2nc3ccccc3n2C)nc2ccccc21", "Potency": "inconclusive: 23.1 µM [cytotoxic, single point]"}, {"compound": "CCN(CC)c1ccc(CNCc2cccs2)cc1", "Potency": "inconclusive: 23.1 µM [cytotoxic, single point]"}, {"compound": "CN(C)S(=O)(=O)c1cc(NC(=O)CNCc2ccc(F)cc2)ccc1Cl", "Potency": "inconclusive: 0.0046 µM [cytotoxic, full curve, poor fit]"}, {"compound": "COc1cc2c(cc1OC)C(c1ccc(Cl)cc1)N(c1ccc(C)c(F)c1)C(=O)C2", "note": "(centres undefined)", "Potency": "inconclusive: 16.4 µM [cytotoxic, single point]"}, {"compound": "Nc1nonc1-c1nc2ccccc2n1Cc1ccc(F)cc1Cl", "Potency": "inactive"}, {"compound": "COc1ccc(CN2CCNC(=O)C2CC(=O)N(C)C2CCOCC2)cc1OC", "note": "(centres undefined)", "Potency": "inactive"}, {"compound": "N=C1S/C(=C\\c2cccc3ccccc23)C(=O)N1c1ccc(F)cc1", "Potency": "active: 7.31 µM"}, {"compound": "N#CC(c1nc2ccccc2nc1N1CCCC1)S(=O)(=O)c1ccccc1", "note": "(centres undefined)", "Potency": "inconclusive: 8.2 µM [cytotoxic, partial curve]"}, {"compound": "COc1ccc[n+](CC(=O)c2ccc(F)cc2)c1", "Potency": "inconclusive: 18.4 µM [rising, partial curve, poor fit]"}, {"compound": "COc1cc(C)c(NC(=O)COc2cccc3c2OC(C)(C)C3)cc1OC", "Potency": "inconclusive: 25.9 µM [cytotoxic, partial curve, poor fit]"}, {"compound": "CCN1CCC(N2CCN(c3ccc(Cl)cc3)CC2)CC1", "Potency": "inactive"}, {"compound": "COc1ccc(CNC(=O)C2CCCN(S(=O)(=O)c3ccc4c(c3)CCCN4C(C)=O)C2)cc1", "note": "(centres undefined)", "Potency": "active: 20.6 µM and inconclusive: 20.6 µM [cytotoxic, partial curve, poor fit]"}, {"compound": "CC1=CC(C)(C)Nc2ccc(OC(=O)C(Cc3ccccc3)N3C(=O)c4ccccc4C3=O)cc21", "note": "(centres undefined)", "Potency": "inactive"}, {"compound": "CCc1nnc2c(NCc3ccc(F)cc3)nc3ccccc3n12", "Potency": "inactive"}, {"compound": "NC(=O)c1nc(C(=O)N2CCN(c3ccccc3)CC2)c2ccccc2n1", "Potency": "inconclusive: 29.1 µM [cytotoxic, single point]"}, {"compound": "Cc1cc(-c2nn(-c3ccccc3F)cc2CNCCc2cnccn2)c(C)s1", "Potency": "inactive"}, {"compound": "Cc1cccn2c(=O)c(C(=O)NC3CCCCC3C)c(O)nc12", "note": "(centres undefined)", "Potency": "inconclusive: 23.1 µM [cytotoxic, single point]"}, {"compound": "COc1cccc(C(=O)N2c3ccccc3Sc3ccccc32)c1", "Potency": "inconclusive: 11.6 µM [cytotoxic, partial curve, poor fit]"}, {"compound": "C=CCn1c(SCC(=O)NCCCO)nc2sc3c(c2c1=O)CCC3", "Potency": "inactive"}, {"compound": "CC(C)(C)NS(=O)(=O)c1ccc2[nH]c3c(c2c1)CCCCC3", "Potency": "inconclusive: 16.4 µM [cytotoxic, single point]"}, {"compound": "COc1cc2ccccc2cc1C(=O)N(CCN(C)C)c1nc2ccc(Br)cc2s1", "Potency": "inconclusive: 18.4 µM [cytotoxic, single point]"}, {"compound": "COc1cc(-c2nnc(CSc3nnc(Nc4ccc(C(C)C)cc4)s3)o2)cc(OC)c1OC", "Potency": "inactive"}, {"compound": "COc1ccc(NC(=O)c2cc(-c3cc(C)cc(F)c3)n[nH]2)cc1OC", "Potency": "inconclusive: 29.1 µM [cytotoxic, single point]"}, {"compound": "Cc1ccc2nc(NC(=O)c3ccccn3)sc2c1", "Potency": "inconclusive: 5.8 µM [cytotoxic, full curve]"}, {"compound": "CCc1ccc2[nH]c(=O)c(CN(CCCN3CCOCC3)C(=O)Nc3ccc(F)cc3)cc2c1", "Potency": "inconclusive: 20.6 µM [cytotoxic, single point]"}, {"compound": "CCOc1ccc(-c2n[nH]c3c2C(c2ccccc2OC)N(c2ccc(Br)cc2)C3=O)cc1", "note": "(centres undefined)", "Potency": "inactive"}, {"compound": "Cc1cc(C(=O)N/N=C/c2cc(N=Nc3ccccc3)ccc2O)n[nH]1", "Potency": "inconclusive: 7.31 µM [cytotoxic, partial curve]"}, {"compound": "COc1ccccc1N1CCN(C(=O)c2oc3ccccc3c2NC(=O)C(C)Oc2ccccc2)CC1", "note": "(centres undefined)", "Potency": "inconclusive: 0.0082 µM [rising, full curve]"}, {"compound": "CC1(C(=O)Nc2ccccc2)Cc2c(-c3ccc4c(c3)OCO4)ccnc2O1", "note": "(centres undefined)", "Potency": "inconclusive: 25.9 µM [cytotoxic, single point]"}, {"compound": "Brc1ccc(OCc2nnnn2-c2ccccc2)cc1", "Potency": "inconclusive: 13 µM [cytotoxic, partial curve, poor fit]"}, {"compound": "COc1ccccc1NC(=O)c1ccc[n+]([O-])c1", "Potency": "inactive"}, {"compound": "COc1ccc(-c2nc3cnccn3c2NCc2ccccc2)cc1SC1CCCCC1", "Potency": "inactive"}, {"compound": "NC1=NC2(CCCCC2)N=C(Nc2ccc(F)cc2F)N1", "Potency": "inactive"}, {"compound": "COc1ccc(SCC(=O)c2cc(C)c(OC(=S)N(C)C)c(C)c2)cc1", "Potency": "inactive"}, {"compound": "Cc1ccccc1NC(=S)NCC(c1cccnc1)N(C)C", "note": "(centres undefined)", "Potency": "inactive"}, {"compound": "Cc1ccc(N2CC(C(=O)Nc3nnc(SCC(N)=O)s3)CC2=O)cc1", "note": "(centres undefined)", "Potency": "inconclusive: 0.0231 µM [cytotoxic, full curve]"}, {"compound": "O=C(CCNS(=O)(=O)c1ccc(OC(F)(F)F)cc1)N1CCN(C/C=C/c2ccccc2)CC1", "Potency": "inconclusive: 29.1 µM [cytotoxic, single point]"}, {"compound": "CCCn1c(SCC(=O)NC(C)C)nc2sc3c(c2c1=O)CCC3", "Potency": "inconclusive: 20.6 µM [rising, partial curve, poor fit]"}, {"compound": "COc1ccccc1N1CCN(CCCNC(=O)c2nnc(Cc3c(F)cccc3Cl)o2)CC1", "Potency": "inactive"}, {"compound": "Cc1ccc(C)c(S(=O)(=O)Nc2cc3c4c(c2)CCN4C(=O)CC3)c1", "Potency": "inconclusive: 25.9 µM [cytotoxic, single point]"}, {"compound": "CCOc1ccc(NC(=S)N(CCOC)C(C)c2cccnc2)cc1", "note": "(centres undefined)", "Potency": "inactive"}, {"compound": "Cc1ccc2[nH]c(C(=O)N/N=C/c3ccccc3O)c(C)c2c1", "Potency": "inconclusive: 18.4 µM [cytotoxic, single point]"}, {"compound": "CC(=O)Nc1ccc(S(=O)(=O)Nc2ccc(N3CCCCC3)cc2)cc1", "Potency": "inconclusive: 29.1 µM [cytotoxic, single point]"}, {"compound": "O=C(Cc1c[nH]c2ccccc12)NNC(=O)c1ccccc1", "activity change, negative = cytotoxic": "inconclusive: 0%"}, {"compound": "COc1ccc(C2CC(c3cccs3)=NN2C(=O)CCl)cc1OC", "note": "(centres undefined)", "Potency": "inconclusive: 18.4 µM [cytotoxic, single point]"}, {"compound": "COc1ccccc1C(=O)NCCC(=O)N(C)Cc1cccnc1", "Potency": "inconclusive: 0.259 µM [cytotoxic, partial curve, poor fit]"}, {"compound": "O=C(O)Cn1c(SCc2ccccc2)nc2ccccc21", "Potency": "inactive"}, {"compound": "NC(=O)CCCc1nc(-c2ccccc2Cl)no1", "Potency": "inconclusive: 29.1 µM [rising, single point]"}, {"compound": "COc1ccc(N=Cc2cc3c(cc2O)OC(N)=C(C#N)C3c2ccccc2)cc1", "note": "(centres undefined)", "Potency": "inconclusive: 25.9 µM [cytotoxic, partial curve, poor fit]"}, {"compound": "CC(=O)c1c(Nc2ccccc2)sc(C(=O)c2ccccc2)c1C", "Potency": "inconclusive: 13 µM [cytotoxic, partial curve]"}, {"compound": "COc1ccc(Nc2c3c(nc4ccccc24)CCC3)c(OC)c1", "Potency": "active: 20.6 µM"}, {"compound": "C=CCn1c(SCc2c(C)noc2C)nc2ccccc2c1=O", "Potency": "inconclusive: 0.651 µM [cytotoxic, full curve, poor fit]"}, {"compound": "Cc1ccc(Cn2nnc3c(=O)[nH]c(C4CCN(C(=O)c5cccs5)CC4)nc32)cc1", "Potency": "inconclusive: 23.1 µM [cytotoxic, single point]"}, {"compound": "Cc1ccc2c(c1)c(=O)c(C(=O)c1ccccc1)cn2Cc1ccccc1F", "Potency": "inconclusive: 23.1 µM [cytotoxic, single point]"}, {"compound": "Cc1ccc2c(CN(C)Cc3cccc(F)c3)cc(=O)oc2c1C", "Potency": "inconclusive: 18.4 µM [cytotoxic, single point]"}, {"compound": "COc1ccc(-n2ncc(S(=O)(=O)c3ccccc3)c2-c2ccc(Cl)cc2)cc1", "Potency": "inconclusive: 29.1 µM [cytotoxic, single point]"}, {"compound": "Cc1ccc2c(c1)N(S(=O)(=O)c1ccc(CN3C(=O)c4cccnc4C3=O)cc1)CCO2", "Potency": "inconclusive: 0.731 µM [rising, full curve, poor fit]"}, {"compound": "O=C(Nc1ccccc1F)c1c[nH]c(=O)[nH]c1=O", "Potency": "inconclusive: 14.6 µM [cytotoxic, partial curve, poor fit]"}, {"compound": "O=C1CCC(/C=C/c2ccccc2)=NN1", "Potency": "inconclusive: 5.17 µM [cytotoxic, full curve]"}, {"compound": "CC(C)CCCC(C)NC(=O)c1cc(S(=O)(=O)N2CCCCC2)ccc1N1CCOCC1", "note": "(centres undefined)", "Potency": "inconclusive: 20.6 µM [cytotoxic, partial curve, poor fit]"}, {"compound": "Nc1nc(-c2ccccc2)c(CCCOc2ccc(NC(=O)CBr)cc2)c(=O)[nH]1", "Potency": "inconclusive: 20.6 µM [cytotoxic, single point]"}, {"compound": "O=C(CCN1C(=O)/C(=C/c2ccccc2)SC1=S)N1CCCCCC1", "Potency": "inconclusive: 18.4 µM [cytotoxic, single point]"}, {"compound": "C[C@@H]1CCCCO[C@@H](CN(C)Cc2ccc3c(c2)OCO3)[C@@H](C)CN([C@H](C)CO)C(=O)c2cc(NS(=O)(=O)c3ccccc3)ccc2O1", "Potency": "inconclusive: 0.0092 µM [rising, full curve, poor fit]"}, {"compound": "O=C(Nc1ccc(Cn2cccn2)cc1)c1ccc(COc2ccccc2Br)cc1", "Potency": "active: 9.2 µM"}, {"compound": "O=c1nc(N/N=C/c2c[nH]c3ccccc23)cn[nH]1", "Potency": "inconclusive: 16.4 µM [cytotoxic, single point]"}]}]}
